Screening data, single-dose tests

By UniProt entry, the sequences of proteins in these tests, tags left out. Residues count along the entry.
UniProt I6X8D2, whole entry: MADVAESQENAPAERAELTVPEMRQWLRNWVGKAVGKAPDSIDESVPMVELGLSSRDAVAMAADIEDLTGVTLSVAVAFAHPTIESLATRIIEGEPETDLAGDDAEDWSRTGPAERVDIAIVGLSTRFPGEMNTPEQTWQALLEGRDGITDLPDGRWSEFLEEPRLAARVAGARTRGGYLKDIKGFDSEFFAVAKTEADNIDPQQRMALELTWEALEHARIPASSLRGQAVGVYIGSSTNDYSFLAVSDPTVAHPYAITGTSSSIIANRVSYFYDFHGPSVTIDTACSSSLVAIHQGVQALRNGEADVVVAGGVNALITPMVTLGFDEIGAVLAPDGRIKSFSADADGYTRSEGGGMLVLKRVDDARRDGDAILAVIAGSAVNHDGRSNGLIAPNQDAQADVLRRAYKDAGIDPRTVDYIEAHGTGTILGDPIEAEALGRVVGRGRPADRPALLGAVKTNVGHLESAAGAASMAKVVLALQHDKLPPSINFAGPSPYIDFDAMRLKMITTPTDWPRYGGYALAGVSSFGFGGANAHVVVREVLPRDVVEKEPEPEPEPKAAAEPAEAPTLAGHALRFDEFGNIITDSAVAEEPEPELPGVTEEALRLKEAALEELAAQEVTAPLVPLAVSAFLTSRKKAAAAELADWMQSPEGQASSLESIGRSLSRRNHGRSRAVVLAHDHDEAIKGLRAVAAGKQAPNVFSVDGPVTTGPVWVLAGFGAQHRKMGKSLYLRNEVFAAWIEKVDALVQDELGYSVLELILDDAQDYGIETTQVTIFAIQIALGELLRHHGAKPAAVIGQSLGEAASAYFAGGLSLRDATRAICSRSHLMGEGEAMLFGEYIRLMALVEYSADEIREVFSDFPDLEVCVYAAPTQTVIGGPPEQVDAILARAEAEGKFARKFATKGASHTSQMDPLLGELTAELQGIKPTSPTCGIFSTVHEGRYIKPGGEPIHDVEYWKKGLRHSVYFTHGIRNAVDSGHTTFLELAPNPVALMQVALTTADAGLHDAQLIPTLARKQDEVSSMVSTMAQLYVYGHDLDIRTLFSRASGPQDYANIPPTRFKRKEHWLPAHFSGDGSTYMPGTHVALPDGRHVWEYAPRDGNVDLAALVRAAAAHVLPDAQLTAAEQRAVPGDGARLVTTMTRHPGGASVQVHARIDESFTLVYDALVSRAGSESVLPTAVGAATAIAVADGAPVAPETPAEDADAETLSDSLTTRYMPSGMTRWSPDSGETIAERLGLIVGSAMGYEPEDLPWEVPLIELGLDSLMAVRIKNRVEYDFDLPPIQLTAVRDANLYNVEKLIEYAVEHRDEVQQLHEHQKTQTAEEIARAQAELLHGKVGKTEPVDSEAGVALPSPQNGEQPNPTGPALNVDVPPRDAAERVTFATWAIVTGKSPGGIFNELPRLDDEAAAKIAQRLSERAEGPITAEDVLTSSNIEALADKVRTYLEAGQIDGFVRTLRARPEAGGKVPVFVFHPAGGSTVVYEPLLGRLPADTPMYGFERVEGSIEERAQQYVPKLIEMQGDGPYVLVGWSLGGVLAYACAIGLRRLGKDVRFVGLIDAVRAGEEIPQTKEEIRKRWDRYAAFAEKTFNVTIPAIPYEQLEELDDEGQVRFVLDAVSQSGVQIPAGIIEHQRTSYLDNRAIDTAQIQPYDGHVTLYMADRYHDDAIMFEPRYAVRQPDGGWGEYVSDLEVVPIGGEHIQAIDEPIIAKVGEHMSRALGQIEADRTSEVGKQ
UniProt Q8IDJ8, 1-583: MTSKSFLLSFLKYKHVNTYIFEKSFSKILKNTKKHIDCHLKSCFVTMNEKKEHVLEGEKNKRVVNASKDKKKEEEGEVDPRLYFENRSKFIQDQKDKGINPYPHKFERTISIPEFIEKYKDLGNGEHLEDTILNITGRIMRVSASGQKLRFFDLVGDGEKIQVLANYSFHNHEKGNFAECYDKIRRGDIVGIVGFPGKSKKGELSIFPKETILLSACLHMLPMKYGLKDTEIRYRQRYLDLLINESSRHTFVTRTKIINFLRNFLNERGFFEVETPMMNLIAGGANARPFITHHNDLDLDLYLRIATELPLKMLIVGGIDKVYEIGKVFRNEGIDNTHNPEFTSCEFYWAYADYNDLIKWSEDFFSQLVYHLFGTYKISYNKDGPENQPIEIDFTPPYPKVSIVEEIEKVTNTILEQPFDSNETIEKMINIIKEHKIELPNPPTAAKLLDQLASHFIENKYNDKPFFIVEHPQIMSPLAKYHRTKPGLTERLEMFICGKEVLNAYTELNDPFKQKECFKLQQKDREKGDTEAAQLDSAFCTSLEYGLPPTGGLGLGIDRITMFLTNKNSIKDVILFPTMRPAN
UniProt A4I591, 1-473: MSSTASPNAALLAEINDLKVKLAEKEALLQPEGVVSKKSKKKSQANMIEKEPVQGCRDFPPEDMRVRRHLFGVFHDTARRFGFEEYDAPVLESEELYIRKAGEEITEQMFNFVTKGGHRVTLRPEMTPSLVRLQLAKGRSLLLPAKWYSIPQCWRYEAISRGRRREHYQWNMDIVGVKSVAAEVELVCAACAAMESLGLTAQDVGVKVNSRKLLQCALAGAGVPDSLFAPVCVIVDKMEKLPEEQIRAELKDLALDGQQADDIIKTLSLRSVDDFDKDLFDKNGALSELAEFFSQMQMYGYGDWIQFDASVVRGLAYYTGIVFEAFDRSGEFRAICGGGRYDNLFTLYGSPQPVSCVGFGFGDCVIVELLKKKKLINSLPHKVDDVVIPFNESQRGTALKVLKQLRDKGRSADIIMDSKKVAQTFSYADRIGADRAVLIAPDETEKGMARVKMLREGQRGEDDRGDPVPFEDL
UniProt P9WFT3, whole entry: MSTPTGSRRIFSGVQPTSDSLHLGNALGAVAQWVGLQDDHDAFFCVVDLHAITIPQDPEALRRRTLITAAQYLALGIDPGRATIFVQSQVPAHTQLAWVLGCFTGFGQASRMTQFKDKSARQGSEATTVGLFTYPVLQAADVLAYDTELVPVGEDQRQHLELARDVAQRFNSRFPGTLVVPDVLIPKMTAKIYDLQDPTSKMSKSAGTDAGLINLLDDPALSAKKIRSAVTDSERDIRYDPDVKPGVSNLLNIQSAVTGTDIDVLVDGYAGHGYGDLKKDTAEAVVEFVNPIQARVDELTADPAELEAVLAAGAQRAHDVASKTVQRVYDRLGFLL

Data taken from ChEMBL document CHEMBL3988442, “University of Dundee, Small-Polar-MMV Screening Library” (2021).

A: 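Polyketide synthase Pks13, Mycobacterium tuberculosis (UniProt I6X8D2). Enzyme assay of the thioesterase domain of polyketide synthase 13; the read-out is not stated. Concentration: 30 µM. The record gives no direction; the compounds picked for IC50 retests had high values, so higher reads as stronger inhibition. Of about 67,000 compounds tested this way, about 300 (0.46%) reached 50% or more in at least one test.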
B: 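Enzyme assay of the cytosolic lysyl-tRNA synthetase in 384-well plates, read by luminescence. Target: Lysine-tRNA ligase, Plasmodium falciparum 3D7 (UniProt Q8IDJ8). Compounds at 30 µM. Higher reads as stronger inhibition, judged from the few compounds that gave an IC50. Of about 69,000 compounds tested this way, about 49 (0.071%) reached 50% or more in at least one test.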
C: 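Enzyme assay of histidyl-tRNA synthetase; the read-out is not stated. Target: Histidine-tRNA ligase, Leishmania infantum (UniProt A4I591). Compounds at 30 µM. Higher reads as stronger inhibition (inferred: compounds with an IC50 in retests scored well above the rest). The assay is labelled LdHisRS but filed under L. infantum. About 69,000 compounds were tested under these conditions; 0.6% (about 410) showed 50% or more at least once.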
D: 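Tryptophan-tRNA ligase, Mycobacterium tuberculosis (UniProt P9WFT3). Enzyme assay of tryptophanyl-tRNA synthetase; the read-out is not stated. Tested at 10 µM. Direction is not recorded; retested compounds ran higher, which suggests that high means inhibition. About 65,000 compounds were tested under these conditions; 0.098% (about 64) showed 50% or more at least once.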

Values are the deposited “Percent Effect”, in %.
How 0% and 100% were set is not recorded. Most values in the screen are low, and negative values occur.
Compounds were drawn at random from those tested, without regard to their results.
A dash means the value is not listed here; it may have been measured.

| SMILES | A | B | C | D |
|---|---|---|---|---|
| `Cc1c(Cl)cccc1S(=O)(=O)N1CCC2(CC1)OCCS2` | -4.134% | 12.42% | 21.51% | -0.08333% |
| `CCN(C)c1ncnc2c1CCN(Cc1ccoc1)CC2` | -24.03% | 2.09% | 19.61% | -2.589% |
| `Cc1cc(C)n(CC2CCCN2C(=O)c2c[nH]c3ncccc23)n1` (centres unmarked) | -7.547% | -4.908% | -15.38% | -2.818% |
| `OCC1(CC2CC2)CCCN(Cc2cnc(N3CCOCC3)nc2)C1` (centres unmarked) | -27.43% | 2.634% | 2.618% | -1.638% |
| `CCc1nc(C2CCCN2Cc2nnc(C3CC3)o2)no1` (centres unmarked) | -2.272% | 0.8174% | 18.35% | 3% |
| `CC[C@@H](C)[C@H](NC(=O)Cn1ccc2c(Cl)cccc21)C(=O)O` | 0.7629% | 1.576% | 18.42% | -0.7703% |
| `Cn1ncc2c1NC(=O)CC2c1ccc(O)cc1` (centres unmarked) | -4.826% | -0.9937% | 0% | -1.086% |
| `CCn1ncc2c1C(COC)CN(Cc1ccsc1)C2` (centres unmarked) | -20.29% | -0.389% | 18.87% | 0.1676% |
| `CCS(=O)(=O)CC(=O)Nc1cc(-c2cccc(F)c2F)n[nH]1` | -15.49% | 0.8448% | 3.191% | 4.645% |
| `CN(Cc1ccccc1)C(=O)CSc1ccc2c(c1)OCCO2` | 2.826% | 6.382% | -2.679% | -1.665% |
| `CCC(C)(NC(=O)CCN1CCOC1=O)C(=O)OC` (centres unmarked) | 7.117% | 2.091% | 14.58% | 1.142% |
| `CCCC(=O)NC1CCc2c(ccc(=O)n2Cc2csc(C)n2)C1` (centres unmarked) | 1.427% | 5.342% | 13.51% | - |
| `Cc1cc(F)ccc1NCC(=O)NCC(F)(F)F` | 13.54% | -0.4964% | 9.677% | -2.428% |
| `CC(C)(O)CN1CCN(C(=O)c2cnn(-c3ccccc3F)c2)CC1` | 22.63% | 5.81% | 16.96% | 3.403% |
| `CNC(=O)c1nn(C)cc1NC(=O)C(C)n1ncc(Cl)c1C` (centres unmarked) | 3.124% | 5.964% | 0.885% | -6.11% |
| `COc1cc(N2CC[C@H](O)[C@@H]2Cc2cnn(C)c2)ncn1` | -17.93% | 6.136% | 9.023% | -2.703% |
| `CCc1nccn1CCC(=O)N1CC[C@@H](c2sccc2C)[C@H](O)C1` | - | 1.223% | 6.667% | -0.9338% |
| `Cc1nccn1C1CCCN(C(=O)C2=NN(C)C(=O)CC2)C1` (centres unmarked) | -3.89% | 6.598% | 7.143% | -3.991% |
| `Cc1c(Cl)c(C(F)(F)F)nn1C(C)C(=O)NC1CCN(C)CC1` (centres unmarked) | -11.4% | 1.859% | 10.62% | 1.147% |
| `CCc1nccn1C1CCCN(C(=O)c2cnn(C)c2C2CC2)C1` (centres unmarked) | -5.866% | 1.662% | 11.9% | -5.243% |
| `O=C(COCc1nc(-c2ccncc2)no1)NC1CCCCC1` | -7.821% | -0.9849% | 17.92% | 2.403% |
| `O=C(c1cc[nH]n1)N1CCC(F)(F)C2(CCN(c3ccccn3)C2)C1` (centres unmarked) | 9.398% | -2.119% | -6.195% | 6.932% |
| `Cc1nc(CCCNC(=O)[C@H]2CNC[C@@H](C(=O)N3CCCC3)C2)sc1C` | -16.63% | -15.78% | 7.447% | 1.472% |
| `CCN1CC2(CCCCN2C(=O)c2ccn(C)n2)CC1=O` (centres unmarked) | -22.72% | 4.107% | 21.36% | -2.829% |
| `CC(NCCCn1ccnc1)c1ccc(N2CCCS2(=O)=O)cc1` (centres unmarked) | -2.903% | -1.403% | 7.042% | -4.945% |
| `OCc1cccc(CNCc2cccc3c2OCCO3)c1` | - | 1.426% | 8.696% | -0.6431% |
| `O=C(NCCCc1ccccn1)c1cn(CCN2CCNCC2)nn1` | 4.511% | 3.644% | 16.87% | -8% |
| `O=C(CN1CCCCC1Cn1cccn1)NC1CCOCC1` (centres unmarked) | -10.61% | 2.337% | 4.839% | -1.018% |
| `COc1ccc(CN(C)c2ncc(S(N)(=O)=O)s2)c(OC)c1` | 17.02% | 8.27% | 13.16% | 0.9336% |
| `Cc1nnc(NCc2cccc(OCC3CCCO3)c2)c(C#N)c1C` (centres unmarked) | -4.066% | 8.118% | 21.74% | -0.8223% |
| `Cn1cc(C2=NOC(C(=O)NC3(c4ccccc4)CCCC3)C2)cn1` (centres unmarked) | 5.585% | -0.5837% | 2.878% | -1.953% |
| `CN1CCc2[nH]nc(C(=O)N3CCC4(CN(C)C(=O)O4)C3)c2C1` (centres unmarked) | -24.55% | 3.331% | 12.82% | 1.024% |
| `Cn1nc(CNS(=O)(=O)Cc2ccccc2F)c2c1CCCC2` | -86.95% | 2.503% | 12.9% | 2.583% |
| `Cc1ccc(-c2nnc(CN3CCCCC3Cn3cncn3)o2)cc1` (centres unmarked) | -0.3408% | 3.499% | 19.23% | 3.481% |
| `CC(C)CCNC(=O)CNC(=O)N1CCc2c([nH]c3ccc(Cl)cc23)C1` | 3.435% | -0.2667% | 7.895% | -2.871% |
| `c1ccc(CN2CC[C@H]3CO[C@H](CNc4ncccn4)[C@H]3C2)cc1` | -9.444% | -1.769% | 15.28% | -4.344% |
| `COCC1CC2(CCN(C(=O)C3CCSCC3)CC2)CO1` (centres unmarked) | 5.263% | -2.518% | 4.274% | 14.88% |
| `N#Cc1c(Cl)nsc1NCc1ccc(N2CCC(CO)CC2)cc1` | 22.05% | -1.146% | 5.479% | -6.989% |
| `c1cnc(Nc2ccc(C3CCCCN3)cn2)cn1` (centres unmarked) | 6.853% | 4.417% | 8.451% | -0.7473% |
| `Cc1oc(C)c(C(=O)NCc2cccnc2)c1C` | - | 0.9873% | 18.35% | -2.288% |
| `Cc1ccc(-c2nnc(C(C)NCCn3cc(C)cn3)o2)cc1` (centres unmarked) | -15.6% | -0.08269% | 13.68% | -9.636% |
| `CC1(C)CCC(C(=O)O)c2ccccc21` (centres unmarked) | -14.88% | 4.961% | 21.05% | -3.269% |
| `CC(C)Cc1cc(C(=O)O)nc2[nH]c(=O)[nH]c(=O)c12` | -6.744% | 0.8008% | 18.68% | 1.618% |
| `CCCn1ccnc1CN1C[C@@H](CN2CCCN(C)CC2)[C@@H](CO)C1` | -3.062% | 0.05615% | 15.09% | -1.484% |
| `Cc1cc(CN2CCC(c3ccnn3CCO)CC2)no1` | -27.99% | 8.545% | 16.85% | 1.18% |
| `CC(C)(C)C(=O)N1CC[C@H]2NC(=O)N(c3ccc(F)cc3)C(=O)[C@H]21` | -17.22% | 7.033% | 19.44% | -0.8283% |
| `COCC(=O)N1CCCC(c2nc(N(C)C)ncc2-c2ccccc2)C1` (centres unmarked) | -3.662% | 1.395% | 10% | 4.158% |
| `CCC(C)NC(=O)c1snnc1-c1ccc(OC)cc1` (centres unmarked) | -16.05% | 4.241% | 7.865% | 3.479% |
| `COc1cccc(CC(=O)N2CCCC(n3nc(C)cc3C)C2)c1` (centres unmarked) | -1.768% | 0.5656% | 3.39% | 0.1146% |
| `CN(C)C(=O)c1ccc2c(c1)N(C)C(CC(=O)NC(C)(C)CO)CO2` (centres unmarked) | -16.12% | 0.856% | 4.808% | 0.9479% |
| `Cc1nc(C)c2c(n1)CCN(C(=O)C1(C#N)CC1)CC2` | -5.029% | 3.981% | 14% | -3.843% |
| `COc1cc(C(=O)N2CCCS2(=O)=O)ccc1C` | -10.04% | -1.519% | 31.08% | -1.436% |
| `Cc1cccc(N2CCC3(CCN(C(=O)c4cccnc4)CC3)C2)n1` | -2.634% | 3.662% | 11.5% | 4.941% |
| `CN(C)S(=O)(=O)N1CCC(Oc2ccc(C#N)cn2)CC1` | -6.889% | 2.544% | 22.33% | -4.741% |
| `O=C(c1ccncc1F)N1C[C@@H]2OCCN(CC3CC3)[C@@H]2C1` | -27.46% | 2.466% | 10.26% | 5.911% |

5 of the entries, repeated:

| SMILES | A | B | C | D |
|---|---|---|---|---|
| `OCC1(CC2CC2)CCCN(Cc2cnc(N3CCOCC3)nc2)C1` (centres unmarked) | -27.43% | 2.634% | 2.618% | -1.638% |
| `CCN(C)c1ncnc2c1CCN(Cc1ccoc1)CC2` | -24.03% | 2.09% | 19.61% | -2.589% |
| `CC1(C)CCC(C(=O)O)c2ccccc21` (centres unmarked) | -14.88% | 4.961% | 21.05% | -3.269% |
| `CC(C)(O)CN1CCN(C(=O)c2cnn(-c3ccccc3F)c2)CC1` | 22.63% | 5.81% | 16.96% | 3.403% |
| `Cc1c(Cl)c(C(F)(F)F)nn1C(C)C(=O)NC1CCN(C)CC1` (centres unmarked) | -11.4% | 1.859% | 10.62% | 1.147% |